Laboratory results reported in patent US5589335A, “Hybridization promotion reagents” (Amoco Corporation, priority 1994, dated 1996).

System: DNA-RNA hybrid
Assay: RNA:DNA hybrid melting in TMA reagents

| Structure (SMILES) | melting temperature (Td) of DNA-RNA hybrid | melting curve width ΔT3/4 - 1/4 (RNA:DNA hybrid) |
| --- | --- | --- |
| C[N+](C)(C)C [TMA.SCN, Tetramethylammonium thiocyanate] | about 60 °C | – |
| C[N+](C)(C)C [TMA.TCA, Tetramethyammonium:Trichloroacetate] | – | about 2 °C |
